Drawing on PubChem BioAssay AID2685 (National Center for Advancing Translational Sciences (NCATS), 2010), this text covers cell number change and AC50 for 38 compounds.

This is one part of the list. These are further read-outs of the screen, such as a control signal, another cell line or another target. No call is given for them. The list favours compounds with an active or inconclusive main result. Potencies come from curve fits of mixed quality, noted in brackets.

A short description of the test: qHTS Assay for Lipid Storage Modulators in Drosophila S3 Cells.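 On cell number change: cells counted by Cell Tracker Red CMTPX staining in the red channel.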 To be noted: BODIPY lipid droplet fluorescence, 18-24 h; for cell number change: measured here: cell count max response, cells fed with added oleic acid. The method in brief:
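Drosophila S3 cells loaded with oleic acid (400 uM, as added) and compounds at several concentrations; lipid droplets imaged by 488-nm laser-scanning cytometry, 500–530 nm intensity and object ratio to cell channel. Percent activity normalized to 20 uM Triacsin C.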

Where [1] appears, read: measured here: lipid fluorescence (Fed channel) AC50, cells fed with added oleic acid.
Where [2] appears, read: measured here: cell number channel AC50, cells fed with added oleic acid.

Take `Clc1cccc(Cl)c1OCCOCCNCc1ccccc1`: the cell number change came out at 4.15%. Under setting [1], the half-maximal activity concentration (AC50) was 0.411 µM [rising, full curve, poor fit].

Take `CCOC(=O)C1CCN(c2ncnc3c2oc2ccc(Cl)cc23)CC1`: the cell number change worked out at 52.9%. Besides, under setting [2], the half-maximal activity concentration (AC50) is 18.4 µM [rising, single point]. In the case of `CN(C(=O)COC(=O)C1CSC2(C)CCC(=O)N12)c1ccccc1` (stereo not given), the cell number change was -22.8%. `COCC(=O)N(CCc1ccccc1)Cc1cc2cc(C)ccc2nc1Cl`: the cell number change turned out to be 12.8%. For `CC(=O)c1ccc2c3c(cccc13)C(=O)N(CCc1ccccc1)C2=O`, the cell number change is 8.78%. Besides, under setting [1], the AC50 was 0.517 µM [rising, partial curve, poor fit].

Regarding `O=C(Cc1ccc(Cl)c(Cl)c1)N1CCOCC1`, the cell number change came to 10%. For the same compound, the concentration at half-maximal activity (AC50) under setting [1] was 0.0326 µM [rising, full curve, poor fit].

With `Cc1ccc(CN2CCN(Cc3c(C)nn(C(C)C)c3C)CC2CCO)o1` (stereo not given), the cell number change was -5.69%. Under setting [1], the AC50 is 2.91 µM [falling, single point].

Turning to `CC(NC(=O)Nn1cnnc1)(C(F)(F)F)C(F)(F)F`, the cell number change came out at 15.8%. `CC(C)(C)c1ccc(C(=O)NCC(=O)OCC(=O)Nc2ccccc2[N+](=O)[O-])cc1`: the cell number change amounted to 36.5%. Moreover, the AC50 under setting [2] was 14.6 µM [rising, single point]. Regarding `CCCCc1cc(=O)oc2cc(OCC(=O)N(CC)CC)ccc12`, the cell number change was -24.2%. In the case of `O=C(NCC1CCCO1)/C(=C\c1cccc([N+](=O)[O-])c1)NC(=O)c1ccccc1` (stereo not given), the cell number change was 15.7%. In addition, under setting [1], the AC50 is 6.51 µM [falling, single point]. `O=S1(=O)C=C(Sc2nnc(-c3ccccc3)o2)c2ccccc21`: the cell number change is -81.3%. Moreover, the AC50 under setting [2] is 6.51 µM [falling, partial curve]. The AC50 under setting [1] is 4.11 µM [falling, full curve]. In the case of `Cc1cccc2nc(CSc3nnc(N)s3)cn12`, the cell number change was -1.06%. For the same compound, the AC50 under setting [2] is 5.17 µM [falling, single point]. Besides, the AC50 under setting [1] is 4.11 µM [falling, single point].

Regarding `O=C1C2Sc3[nH]c(=O)sc3C(c3cc([N+](=O)[O-])ccc3O)C2C(=O)N1c1ccccc1` (stereo not given), the cell number change is -18.9%. Besides, under setting [1], the AC50 was 0.291 µM [falling, full curve, poor fit].

Regarding `COC(=O)CSc1nnc(-c2ccc(S(=O)(=O)N3CCC(C)CC3)cc2)o1`, the cell number change worked out at 1.12%. Take `Cc1ccc(S(=O)(=O)NCCOc2nc(N(C)C)nc(N3CCOCC3)n2)cc1`: the AC50 under setting [1] is 0.291 µM [falling, partial curve, poor fit]. `COC(=O)Cn1cnc2c(cnn2-c2ccc(OC)cc2)c1=O`: the cell number change was -12.6%.

Turning to `O=C(CN1C(=O)CSc2ccccc21)N/N=C/c1ccco1`, the cell number change stood at 41.3%. Further, under setting [2], the AC50 is 11.6 µM [rising, partial curve]. With `CC(=O)Nc1cccc(S(C)(=O)=O)c1`, the cell number change stood at 34.8%. Under setting [2], the concentration at half-maximal activity (AC50) is 11.6 µM [rising, partial curve]. In addition, under setting [1], the AC50 was 11.6 µM [rising, partial curve, poor fit]. With `C/C(=N\OCC(=O)Nc1ccccc1Br)c1cccs1`, the cell number change stood at 66.3%. Besides, the AC50 under setting [2] is 5.8 µM [rising, full curve, poor fit]. On to `O=C(COc1ccccc1[N+](=O)[O-])N1CCN(S(=O)(=O)c2ccccc2)CC1`, for which the cell number change is -13.4%. Besides, the concentration at half-maximal activity (AC50) under setting [1] was 6.51 µM [falling, single point]. As for `Cc1ccccc1OCc1nnc(SCC(=O)Nc2c(C)n(C)n(-c3ccccc3)c2=O)n1-c1ccccc1`, the cell number change came out at 10.5%. Under setting [2], the half-maximal activity concentration (AC50) is 0.82 µM [falling, single point]. Moreover, the AC50 under setting [1] was 1.16 µM [falling, single point]. As for `COc1ccc(-n2cc(C(=O)c3ccc4ccccc4c3O)cn2)cc1`, the AC50 under setting [1] was 0.82 µM [rising, single point]. On to `Cc1ccccc1C(=O)OC1OC(=O)C(Cl)=C1Nc1ccc(C(=O)O)cc1` (stereo not given), for which the cell number change was -28.5%. `O=C(c1cc2cc([N+](=O)[O-])ccc2oc1=O)n1cccn1`: the cell number change is -47.5%. In addition, the AC50 under setting [2] is 3.26 µM [falling, partial curve]. The AC50 under setting [1] was 2.06 µM [falling, partial curve]. With `C=CC(COCc1ccccc1)N(Cc1ccccc1)S(=O)(=O)c1ccccc1Br` (stereo not given), the cell number change was found to be 18.6%. The AC50 under setting [1] was 0.0291 µM [rising, full curve, poor fit].

Turning to `COc1cc2c(cc1OC)C(C)N(C(=O)c1sccc1C)CC2` (stereo not given), the cell number change worked out at 7.37%. Also, under setting [1], the AC50 was 20.6 µM [rising, single point].

Consider `CCOc1ccc(-c2cc(N)n(S(=O)(=O)c3ccc(OC)cc3)n2)cc1`, for which the cell number change is -4.35%. Regarding `C=CCn1c(SCCOc2ccc(OC)cc2)nnc1C(C)NC(=O)c1ccc(OC)cc1` (stereo not given), the cell number change is -25.9%. In addition, under setting [2], the AC50 was 0.82 µM [falling, full curve, poor fit]. With `COc1cc(C(=O)/C=C/c2cccnc2)c([N+](=O)[O-])cc1OC`, the cell number change is -51.9%. The AC50 under setting [2] was 29.1 µM [falling, partial curve]. The AC50 under setting [1] was 32.6 µM [rising, single point]. In the case of `O=C(COC(=O)Cc1cccs1)Nc1ccc(F)c(F)c1F`, the cell number change was -21.5%. In addition, the AC50 under setting [2] is 0.13 µM [falling, full curve, poor fit]. The AC50 under setting [1] is 1.46 µM [falling, partial curve]. On to `O=C(CC1C(=O)NCCN1Cc1ccccc1F)NC1CCCCCC1` (stereo not given), for which the cell number change was -4.11%. Also, the AC50 under setting [1] was 18.4 µM [falling, single point]. For `CCC1CCCCN1CC(C)(C)NS(=O)(=O)c1ccccc1` (stereo not given), the cell number change was -0.585%. The AC50 under setting [2] was 0.461 µM [falling, single point].

In the case of `COc1ccccc1-c1cc(C(F)(F)F)nc(N2CCCC2)n1`, the cell number change is -24.7%. Moreover, under setting [1], the AC50 is 29.1 µM [falling, single point]. Take `Cc1ccc(OCCNS(=O)(=O)c2ccc(N3CCCC3=O)cc2)cc1`: the cell number change is -25.9%. Besides, the AC50 under setting [1] is 32.6 µM [falling, single point]. On to `CN1C(C(=O)Nc2ccc(OC(F)(F)F)cc2)=CC(c2ccco2)=NS1(=O)=O`, for which the cell number change is -69%. For the same compound, the half-maximal activity concentration (AC50) under setting [2] is 29.1 µM [falling, single point]. The AC50 under setting [1] is 29.1 µM [falling, single point]. Regarding `COc1ccccc1OCc1ccc(C(=O)NN)cc1`, the cell number change came out at 108%. Also, the AC50 under setting [2] was 2.06 µM [rising, partial curve, poor fit]. The half-maximal activity concentration (AC50) under setting [1] is 2.59 µM [rising, partial curve]. In the case of `COc1ccc(NC(=O)c2ccc3ccccc3n2)cc1S(=O)(=O)Nc1ccccc1Cl`, the cell number change is -21.6%. For the same compound, the AC50 under setting [1] was 0.92 µM [rising, partial curve].
